Measured values published in PubChem BioAssay AID1259354 (Paczesny and Yang Labs, IUPUI and University of Michigan, 2018).
Values joined by “and” are separate entries in the source; they are usually repeats but may differ in a detail not shown here. Equal entries are not always repeated. In all, about 78,000 compounds went through this assay and about 1,800 (2.3%) were called active. The shares of active, inactive and inconclusive entries below differ from those in the screen. No stated cut-off is given here; in the data, active means inhibition above about 30%; inconclusive means mostly about 10% to 28%; inactive means weaker than that.

By UniProt entry, the sequences of proteins in these tests, tags left out. Where a name states a change or a piece, a line headed by the entry shows the natural chain unless it says otherwise.
UniProt Q01638: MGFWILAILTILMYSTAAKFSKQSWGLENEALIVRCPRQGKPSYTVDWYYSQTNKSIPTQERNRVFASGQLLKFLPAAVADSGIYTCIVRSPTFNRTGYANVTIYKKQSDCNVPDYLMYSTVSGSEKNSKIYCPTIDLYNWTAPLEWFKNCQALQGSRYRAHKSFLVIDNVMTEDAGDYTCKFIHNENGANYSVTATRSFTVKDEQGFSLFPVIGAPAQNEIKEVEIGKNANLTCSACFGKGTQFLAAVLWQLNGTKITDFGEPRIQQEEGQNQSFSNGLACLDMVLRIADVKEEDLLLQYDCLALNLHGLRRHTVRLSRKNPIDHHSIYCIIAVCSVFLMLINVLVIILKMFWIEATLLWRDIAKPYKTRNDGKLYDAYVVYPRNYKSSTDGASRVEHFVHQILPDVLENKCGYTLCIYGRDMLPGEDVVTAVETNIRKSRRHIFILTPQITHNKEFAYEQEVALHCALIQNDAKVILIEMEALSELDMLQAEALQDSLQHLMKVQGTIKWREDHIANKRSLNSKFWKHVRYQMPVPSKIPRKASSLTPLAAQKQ

molecular target: Interleukin-1 receptor-like 1 (Homo sapiens) (UniProt Q01638); assay: blocks human ST2 binding to IL-33, primary screen, biochemical, AlphaLISA (AID 1259354); settings: AlphaLISA ST2-Fc/biotin-IL-33 interaction, 1 h; at 17 µM, active compounds read high

Row | SMILES | inhibition
1 | CC1=Nc2cc(C(=O)N3CCCC3)ccc2Sc2c(C)ccc(C)c21 | inconclusive: 15%
2 | Cc1cccc(Oc2ccc(NC(=O)c3ccc([N+](=O)[O-])cc3)cc2)c1C | inconclusive: 16%
3 | CCCc1ccc(OC(=O)c2sc3ncn(CC)c(=O)c3c2C)cc1 | inconclusive: 18%
4 | COC(=O)C1C(=O)C2=C(CC1C)NC(C)=C(C(=O)OC1CCCCC1)C2c1ccc(F)cc1 (stereo not drawn) | inactive
5 | CC(=O)N1CCN(C[C@@H]2C=C(C)[C@H](Cc3nnc(-c4ccccc4)o3)C[C@H]2C(C)C)CC1 | inactive
6 | CCN(CC)S(=O)(=O)c1ccc(C(=O)Nc2nnc(-c3ccccc3OC)o2)cc1 | inactive
7 | Cc1cccc(-n2c(-c3ccc(Cl)cc3)cn3c4c(=O)n(C)c(=O)n(C)c4nc23)c1 | inactive
8 | O=C(c1ccc(Cl)cc1[N+](=O)[O-])N1CCN(c2ccccc2F)CC1 | inactive
9 | Cc1ccc2c(-c3cccc(O)c3)cccc2n1 | inactive
10 | CCOC(=O)c1sc(NC(=O)c2ccc(Br)cc2F)nc1C | inactive
11 | Cc1ccc(-n2ncc3c(N4CCN(Cc5ccccc5)CC4)ncnc32)c(C)c1 | inconclusive: 10%
12 | Cc1ccccc1Cn1cc(C(=O)Nc2ccccc2C)ccc1=O | inactive
13 | COCCNS(=O)(=O)c1cc(OC)ccc1OC | inconclusive: 10%
14 | CCc1ccc(S(=O)(=O)Nc2ccc3oc4c(c3c2)C(=O)CC(C)(C)C4)cc1 | inconclusive: 14%
15 | COc1cc(OC)c(OC)cc1/C=C1\N=C(c2ccc(OC)c([N+](=O)[O-])c2)OC1=O | inactive
16 | CSc1cccc(Sc2cc(C(=O)NCc3ccco3)c3ccccc3n2)c1 | inactive
17 | O=[N+]([O-])c1cnn(-c2nc(-c3cccs3)cc(C(F)(F)F)n2)c1 | inconclusive: 13%
18 | CC1(C)CC(=O)C(C=Nc2ccc(Cl)c(Cl)c2)=C(O)C1 | inconclusive: 19%
19 | Oc1c(C=Nc2ccc(F)cc2F)[nH]c2ccc(Br)c(Cl)c12 | inconclusive: 13%
20 | O=C(Nc1ccc(Cl)cc1)c1cc(=O)c2ccccc2o1 | inactive
21 | O=C1NN(c2ccc(Cl)c(Cl)c2)C(=O)/C1=C\c1ccc(O)c(O)c1 | inconclusive: 14%
22 | COc1ccc(OC)c(N=Cc2c(O)cc(C)c(Cl)c2C)c1 | inconclusive: 20%
23 | COCCCNC(=O)C1CCN(S(=O)(=O)c2ccc(OC)cc2)CC1 | inactive
24 | COc1cc(-c2nc3sccn3c2Nc2cccc(C)c2)ccc1O | inconclusive: 11%

Row | SMILES | inhibition
25 | Cc1cc(NC(=O)CC(C)C)nc2c1c(=O)oc1ccccc12 | inactive
26 | CCOC(=O)C1(CCc2ccccc2)CCN(Cc2cc(CC(C)C)n[nH]2)CC1 | inconclusive: 17%
27 | C(=C\c1ccco1)/CN1CCCn2cncc2C1 | inconclusive: 17%
28 | O=C(NCCC1CN(Cc2ccco2)CCO1)C(=O)N1CCCC1 (stereo not drawn) | inactive
29 | COc1ccc(C(=O)NN2C(=O)C3C4C=CC(C4)C3C2=O)cc1 (stereo not drawn) | inactive
30 | COc1ccc(S(=O)(=O)N(C(=O)c2ccncc2)c2ccc3oc4c(c3c2)CCCC4)cc1 | inconclusive: 12%
31 | CSc1nc2c(c(=O)[nH]1)C(c1cccnc1)C1=C(CC(C)(C)CC1=O)N2 (stereo not drawn) | inconclusive: 14%
32 | CCN(Cc1noc(CC(C)C)n1)C(=O)c1cc(C)[nH]c(=O)c1 | inconclusive: 18%
33 | CCN(CC)c1ccc(C2C(C(=O)Nc3ccc(C)cn3)=C(C)NC3=C2C(=O)CCC3)cc1 (stereo not drawn) | inconclusive: 13%
34 | Cc1cc(C)n(-c2nc3c(c(=O)n(C)c(=O)n3C)n2Cc2ccc(F)cc2)n1 | inactive
35 | CC(=O)NCC1=CCCN(CCn2cc(Cl)cn2)C1 | inconclusive: 10%
36 | Cc1cc(C(=O)Nc2c(C)nn(Cc3ccc(Cl)cc3)c2C)no1 | inconclusive: 18%
37 | COc1ccc(-c2noc([C@@H]3Cc4nc[nH]c4CN3C(=O)CSCC(=O)O)n2)cc1 | inconclusive: 15%
38 | COc1ccc(CCC(=O)Nc2cc(N3CCCS3(=O)=O)ccc2C)cc1 | inconclusive: 14%
39 | c1cnc(-c2nc(Cn3cnnc3)cs2)cn1 | inconclusive: 18%
40 | Cn1c(=O)c2c(nc(NCc3ccc4c(c3)OCO4)n2C)n(C)c1=O | inconclusive: 12%
41 | C=CCn1c(CN2CCCC(N3CCCC3=O)C2)nc2ccccc21 (stereo not drawn) | inconclusive: 10%
42 | O=[N+]([O-])c1ccc(Cl)c(-c2ncnn2-c2ccc(F)cc2)c1 | inconclusive: 23%
43 | O=C(Nc1cc(Oc2cccnc2)cc([N+](=O)[O-])c1)c1sc2ccccc2c1Cl | inconclusive: 28%
44 | OCCC1CN(Cc2cc3ccccc3o2)CCN1CCc1ccccc1 (stereo not drawn) | inactive
45 | COc1ccc(NC(=O)O[C@@H]2CO[C@H]3[C@@H]2OC[C@@H]3Nc2nccc(-c3cccc(C#N)c3)n2)cc1 | inconclusive: 23%
46 | CSc1nc(N)nc(SCC(=O)c2ccccc2)c1C#N | inconclusive: 13% and inconclusive: 11%
47 | Cc1cccc(-c2nsc(SCC(=O)N3CCOCC3)n2)c1 | inactive
48 | O=C1Nc2ccccc2C(O)(C(=O)NC2CCCCCCC2)N1c1ccccc1 (stereo not drawn) | inactive

Row | SMILES | inhibition
49 | Cc1cc(N(C)C)nc(N2CCN(S(=O)(=O)c3ccc(Cl)cc3)CC2)n1 | inconclusive: 14%
50 | CCOC(=O)C1CCC(CNC(=O)NCCCn2c(C(F)(F)F)nc3cccnc32)CC1 (stereo not drawn) | inactive
51 | Cc1cc(C)cc(NC(=O)CSc2nc3c(c(=O)n2-c2ccccc2)SCC3)c1 | inconclusive: 20%
52 | O=[N+]([O-])c1ccc(S(=O)(=O)NC2CCCC2)cc1 | inactive
53 | CCN(CC)C(=O)C1CCCN(Cc2ccc(Br)cc2)C1 (stereo not drawn) | inconclusive: 10%
54 | CC1CC(=O)C2=C(C1)OC(N)=C(C#N)C2c1ccc(F)cc1F (stereo not drawn) | inactive
55 | Nc1ccc(S(=O)(=O)Nc2nccc(/C=C/c3cccc(Cl)c3)n2)cc1 | inactive
56 | O=C(CCC1CCN(C(=O)c2ccccc2F)CC1)NCc1cccc(C(F)(F)F)c1 | inactive
57 | COc1cc(-c2ccc(NC(C)=O)c(OC)c2)ccc1NC(C)=O | inactive
58 | O=C(c1cc(-c2ccncc2)nc2ccccc12)N1CCCCC1 | inactive
59 | CN(C)C(=O)N1CCC(C(=O)N2CCCC(Nc3ccc4c(c3)OCCO4)C2)CC1 (stereo not drawn) | inactive
60 | CC1OC(OC2C(OC(=O)/C=C/c3ccc(O)c(O)c3)C(CO)OC(OCCc3ccc(O)c(O)c3)C2OC2OCC(O)C(O)C2O)C(O)C(O)C1O (stereo not drawn) | inactive
61 | COc1cc(C)c(Cl)cc1S(=O)(=O)N1CCN(c2nc(C)cc(N(C)C)n2)CC1 | inconclusive: 20%
62 | C(=C\c1ccccc1)/C1=Nc2ccccc2NC(c2ccccc2)C1 (stereo not drawn) | inconclusive: 19%
63 | Cc1ccc(C2=N/C(=C\c3sccc3C)C(=O)O2)cc1[N+](=O)[O-] | inconclusive: 25%
64 | CC1CCN(S(=O)(=O)c2ccc3[nH]c(=O)cc(C(=O)O)c3c2)CC1 | inactive
65 | OC(COc1ccc2c(c1)CCC2)CN1CCc2ccccc2C1 (stereo not drawn) | inactive
66 | O=C(/C=C/c1ccc(Cl)cc1Cl)NCCNc1c(Cl)cccc1[N+](=O)[O-] | inactive
67 | O=C(Nc1nc2ccccc2s1)c1ccccc1Br | inconclusive: 16%
68 | CCOc1ccc(C(C)=O)cc1N1C(=O)[C@@H]2C3C=CC([C@@H]2C1=O)C31CC1 | inactive
69 | O=S(=O)(NCc1ccc(Br)cc1)c1ccc(F)cc1 | inconclusive: 13%
70 | CC1(C)CC(CN2CCC(CCC(=O)Nc3ccccc3Cl)CC2)CCO1 (stereo not drawn) | inconclusive: 10%
71 | Cc1nn(C)c(Cl)c1S(=O)(=O)N[C@@H]1C[C@@H](CO)N(C)C1 | inconclusive: 11%
72 | Cc1nn(S(=O)(=O)N(C)C)c(C)c1Br | inconclusive: 11%

Row | SMILES | inhibition
73 | CN1[C@@H](CCC(=O)N2CCN(c3ccccc3)CC2)CNC(=O)[C@H]2NCC[C@H]21 | inconclusive: 10%
74 | CC(=O)Nc1nnc(SCC(=O)Nc2ccc([N+](=O)[O-])cc2)s1 | inactive
75 | Cc1nc(CN2CCN(C3CCC4(CCNCC4)CC3)CC2)no1 | inconclusive: 12%
76 | Oc1cc(-c2cccc(Cl)c2)cc2c1OCCN(CCCc1cccnc1)C2 | inconclusive: 18%
77 | COc1cccc(C(=O)Nc2ccc(Cl)c(N3CCCS3(=O)=O)c2)c1OC | inconclusive: 11%
78 | CCc1cccc(CC)c1NC(=O)c1ccc2c(c1)OCO2 | inactive
79 | CCn1c(CN2CCC(CCC(=O)NCC3CCCO3)CC2)nc2ccccc21 (stereo not drawn) | inconclusive: 12%
80 | N#C/C(=C/c1cccc(F)c1)c1nc(-c2ccc(Cl)cc2)cs1 | inconclusive: 12%
81 | CCSCCNc1nccc(-c2cn(C)nc2C)n1 | inconclusive: 11%
82 | Cc1ccc(S(=O)(=O)N2CCN(c3ccc([N+](=O)[O-])c(N4CCOCC4)c3)CC2)cc1 | inactive
83 | COCC(=O)N1CC[C@H](c2nc3ccccc3[nH]2)C1 | inconclusive: 10%
84 | O=c1cc(-c2cc(Br)cc3c2OCOC3)oc2ccc(Cl)cc12 | inactive
85 | O=C(NC1CCCC1)C1c2ccccc2C(=O)N1Cc1ccccc1 (stereo not drawn) | inconclusive: 13%
86 | C=CCNC(=O)NC1CC(=O)N(Cc2cccc3ccccc23)C1 (stereo not drawn) | inconclusive: 25%
87 | Cc1[nH]n(-c2ccccc2)c(=O)c1C=Nc1c(C)[nH]n(-c2ccccc2)c1=O | inactive
88 | O=C(NCc1cccnc1)c1cc(-c2ccc(Cl)s2)nc2ccccc12 | inconclusive: 17%
89 | O=C(CCC1CCCCC1)NC1CCCCCC1 | inconclusive: 11%
90 | COc1ccc(-c2ccc(C=C3C(=O)OC(c4ccccc4)OC3=O)o2)c([N+](=O)[O-])c1 (stereo not drawn) | inconclusive: 11%
91 | Cc1cc(C)n(CC(C)N2CCC(n3nccc3NC(=O)c3ccc4c(c3)OCO4)CC2)n1 (stereo not drawn) | inactive
92 | Cc1cc(C)c(N2C(=O)[C@H]3[C@@H](C2=O)[C@@]2(CO)C=C[C@H]3O2)c(C)c1 | inconclusive: 11%
93 | O=C(Cc1c(C(=O)O)[nH]c2ccc(Cl)cc12)NCC1COc2ccccc2O1 (stereo not drawn) | inactive
